Source: PubChem BioAssay AID1259254 (NCATS, 2017)
Assay: 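Gene knock-downs that lead to re-replication, shown by excess G2 DNA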 (primary screen). System: human HCT116 colorectal cancer cells. Reagent: single siRNA against human genes. Duration: 3 days. Measured: 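Nuclei stained with Hoechst and imaged; cell-cycle phase assigned by DNA content; G2 share scaled per plate, non-targeting siRNA 0%, GMNN siRNA 100%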. Scale: G2 robust z-score and G2 cells, % of GMNN control: higher = more G2 cells, more excess DNA replication. Rule for the call: 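Active siRNAs have a G2 robust z of 5 or more median absolute deviations over the median, which in these data means about 38% or higher of GMNN control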.
The deposit covers about 59,000 reagents; this is an unselected part. In the full data, about 1,550 (2.6%) got an active call. 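G2 share is only a proxy for re-replication; each gene was hit by three separate siRNAs, and active genes were retested.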 Not all columns of the deposit are shown. No sequences are given here. Not stated in the record: the amount of reagent.

no.	gene	PubChem SID	G2 robust z-score	G2 cells, % of GMNN control	Outcome
1	DCTN2	SID160728686	0.294	5.03	inactive
2	DCTN2	SID160728687	-0.614	-1.35	inactive
3	DCTN2	SID160728688	3.19	25.4	inactive
4	GLIS2	SID160752541	-0.212	1.48	inactive
5	GLIS2	SID160752542	1.64	14.5	inactive
6	GLIS2	SID160752543	0.396	5.75	inactive
7	CCDC14	SID160747942	0.477	6.32	inactive
8	CCDC14	SID160747943	1.7	15	inactive
9	CCDC14	SID160747944	-0.203	1.54	inactive
10	KLHDC9	SID160756544	0.127	3.86	inactive
11	KLHDC9	SID160756545	-0.268	1.08	inactive
12	KLHDC9	SID160756546	-0.296	0.887	inactive
13	EAPP	SID160744485	0.316	5.19	inactive
14	EAPP	SID160744486	-0.347	0.528	inactive
15	EAPP	SID160744487	2.08	17.6	inactive
16	MLH3	SID160738261	-0.931	-3.58	inactive
17	MLH3	SID160738262	-0.587	-1.16	inactive
18	MLH3	SID160738263	-0.631	-1.47	inactive
19	MRPL35	SID160740599	-1.01	-4.16	inactive
20	MRPL35	SID160740600	-0.922	-3.52	inactive
21	MRPL35	SID160740601	6.9	51.5	active
22	PSTK	SID160755660	2.13	18	inactive
23	PSTK	SID160755661	2.4	19.8	inactive
24	PSTK	SID160755662	0.986	9.91	inactive
25	SLC7A9	SID160730018	-0.264	1.11	inactive
26	SLC7A9	SID160730020	-0.306	0.816	inactive
27	SLC7A9	SID160730021	-1.31	-6.23	inactive
28	SLC30A7	SID160758747	-1.14	-5.03	inactive
29	SLC30A7	SID160758748	1.8	15.6	inactive
30	SLC30A7	SID160758749	-0.677	-1.8	inactive
31	CARD19	SID160735085	0.216	4.48	inactive
32	CARD19	SID160752011	-1.01	-4.16	inactive
33	CARD19	SID160752012	-0.791	-2.6	inactive
34	RNF6	SID160715957	-0.818	-2.79	inactive
35	RNF6	SID160715959	-0.676	-1.79	inactive
36	RNF6	SID160715960	-0.343	0.552	inactive
37	CLIC2	SID160744445	0.789	8.52	inactive
38	CLIC2	SID160744457	0.095	3.64	inactive
39	CLIC2	SID160744468	-0.397	0.177	inactive
40	ESF1	SID160741035	2.81	22.7	inactive
41	ESF1	SID160741036	-0.139	1.99	inactive
42	ESF1	SID160741037	2.39	19.8	inactive
43	CISD1	SID160744510	0.715	8	inactive
44	CISD1	SID160744512	0.75	8.24	inactive
45	CISD1	SID160744513	-1.04	-4.37	inactive
46	RTF2	SID160733510	-0.554	-0.93	inactive
47	RTF2	SID160740906	-0.614	-1.35	inactive
48	RTF2	SID160740907	0.426	5.97	inactive
49	USO1	SID160720434	-0.187	1.65	inactive
50	USO1	SID160720435	-0.408	0.0952	inactive
51	USO1	SID160720436	-0.854	-3.04	inactive
52	POLR1F	SID160761764	0.82	8.74	inactive
53	POLR1F	SID160761765	3.72	29.2	inactive
54	POLR1F	SID160761766	2.38	19.7	inactive
55	CDIP1	SID160733044	0.898	9.28	inactive
56	CDIP1	SID160739404	2.01	17.1	inactive
57	CDIP1	SID160739405	1.38	12.6	inactive
58	STXBP5	SID160732484	-0.76	-2.38	inactive
59	STXBP5	SID160757382	-0.471	-0.345	inactive
60	STXBP5	SID160757383	0.0935	3.63	inactive
61	MGST3	SID160777235	-0.738	-2.23	inactive
62	MGST3	SID160777236	2.38	19.7	inactive
63	MGST3	SID160777237	-0.0692	2.48	inactive
64	IER5	SID160740476	0.34	5.36	inactive
65	IER5	SID160740477	0.565	6.95	inactive
66	IER5	SID160740478	-0.719	-2.09	inactive
67	TSC22D2	SID160723169	-0.198	1.57	inactive
68	TSC22D2	SID160723170	0.571	6.98	inactive
69	TSC22D2	SID160723171	0.168	4.15	inactive

Reformatted: results already given.
gene | PubChem SID | G2 robust z-score | G2 cells, % of GMNN control | Outcome
IER5 | SID160740478 | -0.719 | -2.09 | inactive
TSC22D2 | SID160723169 | -0.198 | 1.57 | inactive
TSC22D2 | SID160723170 | 0.571 | 6.98 | inactive
